Results are given in words; binding and its absence hold for the method and conditions named. In cells and extracts the contact can be indirect. Binding can be weak; no strength is given. Where a sequence is shown, tags or fusion partners need not be part of it.
Target: C-terminally HA-tagged MEC-19 (C. elegans)
Test: co-IP; Xenopus oocytes 5-6 d after cRNA injection; immunoprecipitation with rabbit polyclonal anti-HA and Protein A/G PLUS-Agarose; immunoblot with anti-Myc (9E10), anti-HA or anti-β-integrin (8C8)

B1: N-terminally Myc-tagged MEC-4(d) (protein, UniProt P24612 1-768)
chain: MSWMQNLKNYQHLRDPSEYMSQVYGDPLAYLQETTKFVTEREYYEDFGYGECFNSTESEVQCELITGEFDPKLLPYDKRLAWHFKEFCYKTSAHGIPMIGEAPNVYYRAVWVVLFLGCMIMLYLNAQSVLDKYNRNEKIVDIQLKFDTAPFPAITLCNLNPYKASLATSVDLVKRTLSAFDGAMGKAGGNKDHEEEREVVTEPPTTPAPTTKPARRRGKRDLSGAFFEPGFARCLCGSQGSSEQEDKDEEKEEELLETTTKKVFNINDADEEWDGMEEYDNEHYENYDVEATTGMNMMEECQSERTKFDEPTGFDDRCICAFDRSTHDAWPCFLNGTWETTECDTCNEHAFCTKDNKTAKGHRSPCICAPSRFCVAYNGKTPPIEIWTYLQGGTPTEDPNFLEAMGFQGMTDEVAIVTKAKENIMFAMATLSMQDRERLSTTKRELVHKCSFNGKACDIEADFLTHIDPAFGSCFTFNHNRTVNLTSIRAGPMYGLRMLVYVNASDYMPTTEATGVRLTIHDKEDFPFPDTFGYSAPTGYVSSFGLRLRKMSRLPAPYGDCVPDGKTSDYIYSNYEYSVEGCYRSCFQQLVLKECRCGDPRFPVPENARHCDAADPIARKCLDARMNDLGGLHGSFRCRCQQPCRQSIYSVTYSPAKWPSLSLQIQLGSCNGTAVECNKHYKENGAMVEVFYEQLNFEMLTESEAYGFVNLLTDFGGQLGLWCGISFLTCCEFVFLFLETAYMSAEHNYSLYKKKKAEKAKKIASGSF
binding: binds

Source: paper PMC4825646, “MEC-10 and MEC-19 Reduce the Neurotoxicity of the MEC-4(d) DEG/ENaC Channel in Caenorhabditis elegans” (G3: Genes|Genomes|Genetics, 2016)
